Measurements: PubChem BioAssay AID1347075 (National Center for Advancing Translational Sciences (NCATS), 2019)
Screen size: about 400,000 compounds; about 5,500 (1.4%) were called active. The shares of active, inactive and inconclusive entries below differ from those in the screen. Calls come from the whole dose curve; as a rule, active = well fitted cell-killing curve with a large enough effect; inconclusive = small, poorly fitted or top-dose-only effect, or effect the other way; inactive = flat fitted curve, though single readings scatter. Potencies of inconclusive entries are doubtful fits and often do not repeat.

Assay: qHTS assay for MDR1-selective chemotherapeutics: Primary screen using the parental adenocarcinoma cell KB-3-1; note: nearly all actives have a fitted effect of over 60% in size
Conditions: KB-3-1 viability, CellTiter-Glo ATP luminescence, 72 h; activity change, negative = cytotoxic: at 46.1 µM (top of the series)
Summary of the method: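 Using CellTiter-Glo luminescence, growth of non-resistant KB-3-1 adenocarcinoma cells is assessed 72 h after pin-tool compound addition at 37 °C. Normalized responses across the concentration series yield fitted curves.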
% is set by controls: 0 for no effect and ±100 for the full control effect; potency is the fitted concentration of half-maximal effect.

SMILES	Potency	activity change, negative = cytotoxic
CCOc1ccc(S(=O)(=O)Nc2ccccc2SC)cc1	inconclusive: 16.4 µM [cytotoxic, partial curve]	
CCCOc1ccc(C(=O)NNC(=S)NC(=O)c2cc(-c3ccc(Cl)cc3)nc3ccccc23)cc1		inactive: 6.25%
COc1cccc(NC(=O)c2ccc3c(c2)OCO3)c1	inconclusive: 1.46 µM [cytotoxic, partial curve]	
CC(/C=N/NC(=O)c1cc(-c2ccc(Cl)cc2)nc2ccccc12)=C\c1ccco1	active: 1.03 µM	
COc1ccc(C(=O)Nc2ccccc2-c2nc3ccccc3s2)cc1OC		inactive: 8.45%
Cc1ccc(C)c(NC(=O)CSc2nccn2-c2cccc(C)c2C)c1		inactive: -4.25%
CC(=O)c1cc2c(cc1NC(=O)c1ccc(-n3nc(C)cc3C)cc1)OCO2		inactive: -0.456%
O=C(Nc1ccc(Oc2ccccc2)cc1)C1CCN(c2c3c(nc4ncnn24)CCC3)CC1	inconclusive: 18.4 µM [cytotoxic, single point]	
CCOC(=O)C1(C)CCCN(C(=O)c2cc(OC)c(OC)c(OC)c2)C1 (stereo not given)		inactive: 0%
CCN(C(=O)c1ccc2c(Cl)c3c(nc2c1)CCC3)c1ccc(C)c(C)c1	inconclusive: 20.6 µM [cytotoxic, single point]	
Cc1ccc(S(=O)(=O)N(CC2CO2)c2cc(Cl)ccc2Cl)cc1 (stereo not given)	inconclusive: 29.1 µM [cytotoxic, single point]	
CN1C(=O)C(O)(CC(=O)/C=C\c2ccc3c(c2)OCO3)c2ccccc21 (stereo not given)	inconclusive: 18.4 µM [cytotoxic, single point]	
C[C@H](NC(=O)c1nc[nH]c1C(=O)N[C@@H](Cc1ccccc1)C(=O)OC(C)(C)C)c1ccccc1	inconclusive: 29.1 µM [cytotoxic, single point]	
Cc1ccccc1NC(=O)Cc1nc(COC(=O)c2ccc(S(C)(=O)=O)c([N+](=O)[O-])c2)cs1	inconclusive: 29.1 µM [cytotoxic, single point]	
COc1ccc(-c2noc(CCC(=O)N(C)c3cc(Cl)ccc3OC)n2)cc1		inactive: -3.46%
COc1ccc(NS(=O)(=O)c2ccc(N3CCCCS3(=O)=O)cc2)cc1Cl	inconclusive: 25.9 µM [cytotoxic, partial curve, poor fit]	
CCOc1ccc(CCNC(=O)c2nn(C)c3c2CS(=O)(=O)c2ccccc2-3)cc1OCC	inconclusive: 29.1 µM [cytotoxic, single point]	
CN(CC(=O)Nc1ccc(OC(F)F)cc1)S(=O)(=O)/C=C/c1ccccc1	inconclusive: 14.6 µM [cytotoxic, partial curve, poor fit]	
Cc1ccc2ccccc2c1C(O)c1ncc(-c2ccc(Cl)cc2)[nH]1 (stereo not given)	inconclusive: 20.6 µM [cytotoxic, single point]	
COC(=O)c1cnn(-c2nc(OC)cc(OC)n2)c1C		inactive: 22%
CCCc1cnc2c(c1SCC(=O)Nc1ccccc1OCC)c(=O)n(C)c(=O)n2C		inactive: 1.24%
COc1ccc(-c2nc3ccccn3c2NCc2ccc3c(c2)OCO3)cc1		inactive: -29.3%
COc1cc(NC(=O)c2cccc(Cl)c2Cl)ccc1NC(=O)c1cc2ccccc2o1		inactive: -4.79%

SMILES	Potency	activity change, negative = cytotoxic
COc1ccc(CS(=O)/C(Cl)=C(/Cl)C(=O)Nc2ccc(OC)nc2)cc1 (stereo not given)	inconclusive: 20.6 µM [cytotoxic, partial curve, poor fit]	
COc1ccccc1C(=O)Nc1ccc(-c2nnn(CC(=O)N3CCN(C(=O)c4ccco4)CC3)n2)cc1	inconclusive: 32.6 µM [rising, single point]	
COc1ccc(S(=O)(=O)N2CCC(C(=O)NN3CCCCC3)CC2)cc1		inactive: 1.47%
COc1ccc(C(=O)N2C=Cc3ccccc3C2C(N)=O)cc1 (stereo not given)		inactive: -2.8%
CC(=O)c1c(C)[nH]c(C(=O)OCc2ccccc2)c1C	inconclusive: 29.1 µM [cytotoxic, single point]	
CC(C)C[C@@H](COCc1ccc(F)cc1)N1CCN(C(=O)c2cccc(C(F)(F)F)c2)CCC1=O		inactive: 5.19%
CCOc1ccccc1CN1CCNC(=O)C1CC(=O)N(C)Cc1nonc1C (stereo not given)		inactive: -12.3%
O=C(NC(CSCc1ccccc1)C(=O)N/N=C/c1ccc(O)cc1O)c1ccc([N+](=O)[O-])cc1 (stereo not given)	inconclusive: 6.31 µM [cytotoxic, full curve, poor fit]	
CCCc1nc2c(c(=O)c3ccccc3n2C)c(=O)n1C1CCCCCC1	inconclusive: 29.1 µM [cytotoxic, single point]	
COc1ccc(N2CCN(C(=O)c3ccc4c(c3)CCN4S(=O)(=O)c3ccccc3)CC2)cc1	inconclusive: 29.1 µM [cytotoxic, single point]	
O=C(NCC(=O)N(CCN1CCOCC1)C(C(=O)NC1CCCC1)c1cccs1)c1ccco1 (stereo not given)		inconclusive: 32.4%
C[C@H](NC(=O)c1nc[nH]c1C(=O)N[C@@H](C)c1ccccc1)C(=O)OC(C)(C)C		inactive: 8.34%
CCN(CC)c1ncnc2sc(C(=O)N3CCN(c4ccc(OC)cc4)CC3)c(C)c12	inconclusive: 29.1 µM [cytotoxic, single point]	
COc1cc(NC(=O)CSc2cc(=O)n(C)c3ccccc23)cc(OC)c1OC		inactive: 16.9%
CCOc1ccc(-c2nn3c(-c4cc(-c5ccccc5)n[nH]4)nnc3s2)cc1	inconclusive: 16.4 µM [rising, single point]	
O=C(Nc1ccccc1)c1cccc(NC(=O)c2ccco2)c1		inactive: -0.247%
Cc1cc(C)n2nc(CNC(=O)c3cccc(N(C)C)c3)nc2n1		inactive: -6.86%
O=C(CN1CCN(CC(=O)Nc2ccccc2Cl)CC1)NCC1(N2CCOCC2)CCCCC1		inactive: -9.53%
N=C(N)SCc1ccc(Cl)cc1Cl		inactive: 3.77%
CCO[C@@H]1OC(C(=O)O)=C[C@H](c2ccc(Br)cc2)[C@H]1CCCO	inconclusive: 18.4 µM [rising, single point]	
CN1OC[C@@H]2CN(Cc3cc(Cl)cc(Cl)c3)[C@H](c3cccc(-c4ccc(C#N)cc4)c3)C[C@@H]21	inconclusive: 29.1 µM [cytotoxic, single point]	
Cc1noc2ncnc(NCCc3ccccc3)c12	inconclusive: 11.6 µM [cytotoxic, partial curve, poor fit]	

Compounds above with an NH in an aromatic ring, in the order listed:
SMILES	Potency	activity change, negative = cytotoxic
C[C@H](NC(=O)c1nc[nH]c1C(=O)N[C@@H](Cc1ccccc1)C(=O)OC(C)(C)C)c1ccccc1	inconclusive: 29.1 µM [cytotoxic, single point]	
Cc1ccc2ccccc2c1C(O)c1ncc(-c2ccc(Cl)cc2)[nH]1 (stereo not given)	inconclusive: 20.6 µM [cytotoxic, single point]	
CC(=O)c1c(C)[nH]c(C(=O)OCc2ccccc2)c1C	inconclusive: 29.1 µM [cytotoxic, single point]	
C[C@H](NC(=O)c1nc[nH]c1C(=O)N[C@@H](C)c1ccccc1)C(=O)OC(C)(C)C		inactive: 8.34%
CCOc1ccc(-c2nn3c(-c4cc(-c5ccccc5)n[nH]4)nnc3s2)cc1	inconclusive: 16.4 µM [rising, single point]	
